Measured values published in patent US4695576A, “L-N-n-propylpipecolic acid-2,6-xylidide” (priority 1985, dated 1987).
Where two headings read alike, the source gives them in different places.

Legend:
[1] = Force of contraction of guinea pig papillary muscle; format: cell-based; conditions: read-out: Reduction of Force of Contraction at 1 Hz
Method: In order to initiate an investigation without the necessity to involve voltage-clamp of the calcium current, the preparations were subject to long depolarizing induced automaticity. If the cells are depolarized from about -50 to about -30 mV the automaticity is dependent on a transmembrane calcium current.
Guinea pig papillary tests were carried out according to the recommendation of the "Report of the Subcommittee on Cardiotoxicity of Local Anesthetics" (Leroy D. Vandam, M.D., chairman). […] Solutions maintained at 37° C.±0.5° continuously perfused the gap compartments. The rear chamber contained isotonic potassium chloride solution. The drugs were added to a Tris-Tyrode solution passing the tip of the muscle. […] It was adjusted to pH 7.4 with trismaleate and HCl before use and gassed with 100% oxygen. Isotonic sucrose solution isolated the rear from the tip to enable current- and voltage-clamping.
The force of contraction was measured with a strain gauge transducer before and after the addition of the test compounds to the medium. The percent reduction in maximum force of contraction from the control was calculated.

[2] = background statement, cited from earlier work

**Q.** Which results are given for `CCN(CC)CC(=O)Nc1c(C)cccc1C` [Lidocaine, 2-diethylamino-2',6'-acetoxylidide]?
**A.** inhibition at 5 µM ([1]; 5 × 10^-6 M): 9.4%; inhibition at 10 µM ([1]; 10^-5 M): 0%; cardiotoxicity [2]: no cardiotoxicity; cardiotoxicity ([2]; listed as lidocaine): much lower cardiotoxicity
